The target in this test is yeast tropomyosin Tpm1 (recombinant) (S. cerevisiae) (UniProt P17536). Put plainly: pull-down; beads coated with Tpm1 or BSA incubated with 50 nM Cof1, Cof1-5 or Cof1-22; bound cofilin shown by immunoblot with yeast cofilin antibody; both purified. For orientation: Immunoblotting shows a protein as a band on a membrane.

By UniProt entry, the sequences of proteins in these tests, tags left out. Where a name states a change or a piece, a line headed by the entry shows the natural chain unless it says otherwise.
UniProt Q03048: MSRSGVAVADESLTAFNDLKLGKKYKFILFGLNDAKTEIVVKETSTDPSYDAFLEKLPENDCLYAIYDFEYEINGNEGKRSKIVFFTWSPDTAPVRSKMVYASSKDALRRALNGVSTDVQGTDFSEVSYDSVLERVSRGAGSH

Results are given in words; binding and its absence hold for the method and conditions named. A result given as binding can be weak or reduced; the word gives no strength.

As to “yeast cofilin mutant Cof1-5 (from UniProt Q03048)”, the binding entry is “binds”.

For the origin of these results see publication PMC2572843.
